± gives the standard deviation. This is a selection; strong and weak results do not stand in their true shares. Many entries were measured with a wide error.
system: MIWI (PIWIL1) piRISC loaded with piRNA #1 (30 nt); assay: pre-steady-state target cleavage rate (min^-1); MIWI and MILI are mouse PIWI proteins and EfPiwi is from a freshwater sponge; tags in brackets are library labels; higher = faster piRNA-guided slicing of the target; conditions: guide: piRNA #1 5'p-UGAGGUAGUAGGUUGUAUAGUAUCCAGAGG; auxiliary factor: 500 nM mouse GTSF1
How it was run: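 A transcribed, DNA-blocked target RNA library (0.1 nM) and 1 nM active affinity-purified piRISC bearing one synthetic guide were incubated in HEPES–potassium acetate buffer at 33 °C for 0–8 or 0–960 min, either with or without 500 nM GTSF1 partner protein. Uncleaved targets were sequenced, normalised to depth and to weakly complementary targets, and pooled over three trials, with k3 capped at 0.0001 min^-1. The pre-steady-state cleavage rate was derived with a burst-and-steady-state fit.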

Sequence	pre-steady-state target cleavage rate
GGAGACCUAUGAUAACAACCUACUCACCUCA	0.00145 ± 0.0053
GGAGACCUAUGAUAACAUCCUACUUCCUCA	0.00022 ± 0.011
GGAGACCUAUGAUAUCAACCUUCUACGUCA	0.000503 ± 0.009
GGAGACCUAUGAAUACAACCUACAACCACA	0.000261 ± 0.011
GGAGACCUAACUAUAAACCUACUACCUCA	0.000842 ± 0.01
GGAGACCUAUGAAUACUAACCUACUACCUCA	0.000158 ± 0.027
GGAGACCUAUGAAUACAACGAUCUACCUCA	0.000317 ± 0.012
GGAGACCUAUGAUAUGUUCCAACUUCCUCA	0.00011 ± 0.015
GGAGUGCAUACUAUACAACGUACUACCUCA	0.714 ± 0.039
GGAGACCUAUGUAUUCAACCUACUUCCUCA	0.000235 ± 0.01
GGAGACCUAUGAUAUGUUGCCACUACCUCA	0.00046 ± 0.0051
GGAGACCUAUGAUUUCAACCUACUACCUGA	0.000183 ± 0.0096
GGAGACCUAUGAAUACAACCACUACCUCA	0.000635 ± 0.0073
GGAGACCUAUGAUAUCUACGUACUACCUCA	0.000185 ± 0.0096
GGAGACCUAUCUAUUCUACCUACUACCUCA	0.00173 ± 0.0023
GGAGACCUAUGAUAACAACGUACAACCUCA	0.000129 ± 0.021
GGAGACCUAACUAUACAAGCCUACUACCUCA	0.000231 ± 0.023
GGAGACCUAUGAUAUCAACGUACUACCACA	0.000121 ± 0.025
GGAGACCUAUGAUAUCAACCUACUACCUA	0.000148 ± 0.019
GGAGUGGAUACUAUACAACGCUACUACCUCA	0.000565 ± 0.011

Sequence	pre-steady-state target cleavage rate
GGAGACCUAUGAUAUGUUGCAACAACCUCA	0.000216 ± 0.021
GGAGACCUAUCUAAUGAACCUACUACCUCA	0.000248 ± 0.0082
GGAGACCUAUCUAUACAACCCUACUACCUCA	0.000245 ± 0.0088
GGAGACCUAUGAUUACCACCUACUACCUCA	0.000461 ± 0.0065
GGAGACGAUACUAUACAACCCUACUACCUCA	0.000775 ± 0.0088
GGAGUGGAUACUAUACAACCUACUAGCUGA	0.000433 ± 0.0067
GGAGAGGAUACUAUACACACCUACUACCUCA	0.00126 ± 0.0075
GGAGACCUUACUAUACAACCUAUACCUCA	0.00037 ± 0.014
GGAGACCUAUGAUUACAACCUACUACCGUCA	0.00105 ± 0.0039
GGAGACCUUACUAUACAACCUGACUACCUCA	0.00154 ± 0.0039
GGAGACCUAUGAAUGACAACCUACUACCUCA	0.000511 ± 0.0097
GGAGACCUAUGAUAUCAACCUCUACCUCA	0.000218 ± 0.013
GGAGACCUAUGUAUACAACCUUACUACCUCA	0.000282 ± 0.0055
GGAGACCUAUGAUAACACCUACUACCUCA	0.000208 ± 0.01
GGAGACCUAUGAUAUGUUGCUAAUACCUCA	0.000794 ± 0.009
GGAGAGGAUACUAUACAACCUAGUUCCUCA	0.000949 ± 0.0053
GGAGACCUAUGAUAUCAACGUACUACCUGA	0.000814 ± 0.0052
GGAGACCUAUGAUAUGUUGGUACUCACCUCA	0.000265 ± 0.014
GGAGUGGAUACUAUACAAUCCUACUACCUCA	0.000299 ± 0.021
GGAGUGGAUACUAUACAACCUACAACCACA	0.00175 ± 0.003

A second format for some results above.
Sequence,pre-steady-state target cleavage rate
GGAGACCUAUGAAUACAACCUACAACCACA,0.000261 ± 0.011
GGAGACCUAUGAUAUGUUCCAACUUCCUCA,0.00011 ± 0.015
GGAGACCUAUGUAUUCAACCUACUUCCUCA,0.000235 ± 0.01
GGAGACCUAUGAAUACAACCACUACCUCA,0.000635 ± 0.0073
GGAGACCUAUGAUAACAACGUACAACCUCA,0.000129 ± 0.021
GGAGACCUAUGAUAUCAACCUACUACCUA,0.000148 ± 0.019
GGAGACCUAUGAAUGACAACCUACUACCUCA,0.000511 ± 0.0097
GGAGACCUAUGAUAACACCUACUACCUCA,0.000208 ± 0.01
GGAGACCUAUGAUAUCAACGUACUACCUGA,0.000814 ± 0.0052
GGAGUGGAUACUAUACAAUCCUACUACCUCA,0.000299 ± 0.021

Reference: the supplement of paper PMC10338343
